The target in one experiment is T1, FLAG-GMNC (mouse) (UniProt Q3URY2).
T1 sequence: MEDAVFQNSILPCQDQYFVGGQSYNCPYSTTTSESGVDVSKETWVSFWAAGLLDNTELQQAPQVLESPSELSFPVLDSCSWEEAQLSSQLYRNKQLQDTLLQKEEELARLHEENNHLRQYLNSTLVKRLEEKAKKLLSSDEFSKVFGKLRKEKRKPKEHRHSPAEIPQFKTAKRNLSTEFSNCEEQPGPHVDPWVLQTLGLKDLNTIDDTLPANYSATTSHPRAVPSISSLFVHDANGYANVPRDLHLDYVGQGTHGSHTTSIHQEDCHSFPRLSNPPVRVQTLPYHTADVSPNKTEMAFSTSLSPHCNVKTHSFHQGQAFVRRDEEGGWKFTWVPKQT
In words: co-IP; FLAG IP from lysate of HEK293T cells co-expressing a FLAG-tagged protein with GFP or GFP-TFEB for 36 h; Pan Mouse IgG Dynabeads pre-bound with FLAG antibody, overnight at 4 °C; washes with RIPA, low salt, high salt, LiCl buffers and 10 mM Tris-HCl pH 8.0; immunoblot.

Amino acid sequences for entries named in this document (tags omitted).
UniProt Q9R210: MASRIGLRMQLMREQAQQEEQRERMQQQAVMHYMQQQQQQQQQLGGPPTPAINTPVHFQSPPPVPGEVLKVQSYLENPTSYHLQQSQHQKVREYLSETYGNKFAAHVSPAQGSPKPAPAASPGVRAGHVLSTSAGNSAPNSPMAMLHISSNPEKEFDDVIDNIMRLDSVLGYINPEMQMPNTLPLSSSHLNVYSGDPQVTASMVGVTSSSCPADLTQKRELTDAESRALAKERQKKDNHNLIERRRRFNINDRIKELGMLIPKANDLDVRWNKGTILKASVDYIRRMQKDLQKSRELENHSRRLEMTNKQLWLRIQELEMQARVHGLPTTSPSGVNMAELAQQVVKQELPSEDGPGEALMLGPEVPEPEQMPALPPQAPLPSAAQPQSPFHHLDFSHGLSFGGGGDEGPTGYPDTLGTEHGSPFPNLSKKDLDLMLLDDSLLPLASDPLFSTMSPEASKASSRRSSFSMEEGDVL

The next experiment deals with T2, FLAG-LHX2 (mouse) (UniProt Q9Z0S2).
T2 sequence: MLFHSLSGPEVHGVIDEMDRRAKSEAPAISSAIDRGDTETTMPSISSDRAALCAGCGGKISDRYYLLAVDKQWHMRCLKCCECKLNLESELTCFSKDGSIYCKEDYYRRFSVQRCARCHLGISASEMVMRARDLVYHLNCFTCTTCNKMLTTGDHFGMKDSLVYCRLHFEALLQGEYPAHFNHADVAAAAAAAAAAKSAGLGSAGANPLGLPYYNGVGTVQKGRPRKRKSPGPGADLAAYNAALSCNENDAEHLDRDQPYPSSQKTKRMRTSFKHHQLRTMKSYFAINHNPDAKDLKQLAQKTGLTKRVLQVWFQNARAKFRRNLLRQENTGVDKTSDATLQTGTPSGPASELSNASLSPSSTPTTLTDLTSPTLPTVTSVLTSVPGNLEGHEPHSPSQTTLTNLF
The description is as above.

The next experiment concerns the target T3, FLAG-GMNN (mouse) (UniProt O88513).
T3 sequence: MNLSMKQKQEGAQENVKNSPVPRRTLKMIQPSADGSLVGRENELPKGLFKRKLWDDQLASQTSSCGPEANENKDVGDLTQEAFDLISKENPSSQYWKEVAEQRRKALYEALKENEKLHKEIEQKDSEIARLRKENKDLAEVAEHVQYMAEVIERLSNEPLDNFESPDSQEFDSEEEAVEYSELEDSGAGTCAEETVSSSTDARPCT
The experiment is described as above.

The target in experiment [1] is TFEB (transcription factor EB), endogenous in mouse EPCs (mouse (endogenous in cultured EPCs)) (UniProt Q9R210). Nature of the experiment: co-IP; endogenous TFEB IP from lysate of SS d + 5 mouse EPCs; Protein A Dynabeads pre-bound with TFEB antibody, overnight at 4 °C; washes with RIPA, low salt, high salt, LiCl buffers and 10 mM Tris-HCl pH 8.0; IgG as control; immunoblot.

Results are given in words; binding and its absence hold for the method and conditions named. Binding seen in cells or lysates may run through a third protein. Some results given as binding are weak or reduced against the parent protein; the word gives no strength. For some of these results: Tags and fused reporters may be left off the sequences shown.

For the molecule GFP-TFEB (from UniProt Q9R210 1-475), the binding entry is reported as “no binding” with FLAG-GMNC (mouse), “binds” in the experiment with FLAG-LHX2 (mouse) and “no binding” with FLAG-GMNN (mouse).

B1: LHX2, endogenous in mouse EPCs (protein, UniProt Q9Z0S2 1-406)
chain: MLFHSLSGPEVHGVIDEMDRRAKSEAPAISSAIDRGDTETTMPSISSDRAALCAGCGGKISDRYYLLAVDKQWHMRCLKCCECKLNLESELTCFSKDGSIYCKEDYYRRFSVQRCARCHLGISASEMVMRARDLVYHLNCFTCTTCNKMLTTGDHFGMKDSLVYCRLHFEALLQGEYPAHFNHADVAAAAAAAAAAKSAGLGSAGANPLGLPYYNGVGTVQKGRPRKRKSPGPGADLAAYNAALSCNENDAEHLDRDQPYPSSQKTKRMRTSFKHHQLRTMKSYFAINHNPDAKDLKQLAQKTGLTKRVLQVWFQNARAKFRRNLLRQENTGVDKTSDATLQTGTPSGPASELSNASLSPSSTPTTLTDLTSPTLPTVTSVLTSVPGNLEGHEPHSPSQTTLTNLF
Consider B1, for which the binding result in experiment [1] is given as “binds”.

These data come from PMC12327645.
